# Test results: PubChem BioAssay AID493014 (National Center for Advancing Translational Sciences (NCATS), 2011)
# Out of some 340,000 compounds screened, about 170 (0.05%) were called active. This list was built around the results that the source calls inconclusive (neither active nor inactive); the mix of calls is not that of the screen. Calls follow the shape of the dose curve; as a rule, active = well fitted inhibition curve with a large enough effect in the signal ratio, with a control signal flat (not every such curve was filed as active); inconclusive = small, poorly fitted or top-dose-only effect, or effect the other way, or a change in a side signal; inactive = flat fitted curve, though single readings scatter; the % refers to the signal ratio. Potencies beside an inconclusive call are fits to weak or partial responses and may not hold up.
# Test: qHTS Assay to Find Inhibitors of Chronic Active B-Cell Receptor Signaling;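 as to activity change, negative = inhibition: plate controls were basal doxycycline-induced cells for no effect and cells given 10 µM MG132 for full effect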
# Details: ABC-DLBCL IkBa-CBG/CBR reporter, luminescence ratio (green luciferase fused to IkBa over red control in TMD8 lymphoma cells), 4 h; activity change, negative = inhibition: at 46.1 µM (top of the series) unless noted
# Summary of the method: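 Cell line TMD8 (human ABC DLBCL), stably expressing tet-inducible CBG68-IkBa fusion and CBR; IMDM/0.5% FBS; cpd up to 46 uM; dox induction, 4 h, 37C/5% CO2; dual luminescence; green/red ratio; MG132 control.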
# Potency is read from the fitted curve at half-maximal effect.
SMILES,"activity change, negative = inhibition",Potency
CC(C)CNC(=S)N(Cc1ccco1)Cc1cc2cc3c(cc2[nH]c1=O)OCCO3,inactive,
Cc1ccccc1C(=O)Nc1nnc(CC(=O)N/N=C/c2cn(Cc3ccccc3)c3ccccc23)s1,inconclusive: -26.9%,
FC(F)(Cl)c1nnc2ccc(Cl)nn12,,"inconclusive: 35.5 µM [cytotoxic, single point]"
COc1ccccc1-n1cc(CN2CCN(CC(C)C)C(CCO)C2)cn1 (stereo not given),,"inconclusive: 35.5 µM [falling, single point]"
O=C(/C=C/c1ccc2c(c1)OCO2)Nc1nc(-c2ccc(F)cc2F)cs1,inactive,
CC(N=Cc1cccc(O)c1O)c1ccccc1 (stereo not given),inconclusive: 11.8%,
CN(C)C(=O)CSc1cccc2cccnc12,,"inconclusive: 20.6 µM [falling, single point]"
CCN1C(=O)CS/C1=N\S(=O)(=O)c1ccccc1,inconclusive: -6.85%,
Cc1nc(SCC(=O)NNC(=O)c2cccs2)[nH]c(=O)c1C,,"inconclusive: 31.6 µM [rising, single point]"
CCOc1ccc(C(=O)Nc2sc3c(c2C(=O)OC)CC(C)(C)NC3(C)C)cc1,inactive,
Cc1ccc(C)c(NC(=O)CSc2nc3nc(-c4cccs4)cc(C(F)(F)F)c3c(=O)[nH]2)c1,inconclusive: -12.5%,
O=C(C[n+]1cc(-c2ccc(F)cc2)n2c1CCC2)c1cccs1,,"inconclusive: 7.08 µM [falling, partial curve, poor fit]"
O=C1CC(=O)C(n2cncn2)C(c2c(F)cccc2Cl)C1 (stereo not given),,"inconclusive: 29.1 µM [falling, single point]"
Cc1ccccc1CNC(=O)c1ccccc1C,,"inconclusive: 14.6 µM [falling, partial curve, poor fit]"
Cc1[nH]n(C(N)=S)c(=O)c1N=Nc1cc(C(F)(F)F)ccc1Cl,inconclusive: 10.6%,
CCCCCCC1CC(CSC(=N)N)OC1=O (stereo not given),,"inconclusive: 13 µM [falling, single point]"
Cc1ccccc1NC(=O)c1cc(C(=O)c2cc(Cl)ccc2O)cn(-c2ccccc2C)c1=O,inconclusive: 15.4%,
COc1ccc(-c2[nH]c(-c3ccc(Cl)cc3)nc2SCC(=O)Nc2nccs2)cc1,inactive,
Fc1ccccc1COc1ccc(C(=S)N2CCCC2)cc1,inactive,
COc1ccc(/C=N/Nc2ccc(C(=O)O)cc2)cc1Br,inconclusive: -58.3%,
Cc1sc2nc(COC(=O)c3ccc(Cl)c(N)c3)[nH]c(=O)c2c1C,,"inconclusive: 12.6 µM [falling, partial curve]"
CC(C)Cc1nnc(NC(=O)c2ccc3c(c2)OCCO3)s1,,"inconclusive: 29.1 µM [falling, single point]"
Cc1ccc(NC(=O)CN(C)CC(=O)Nc2ccc(N3CCOCC3)cc2)cc1F,inconclusive: -9.21%,
COc1ccc(C(=O)/C=C(\C)Nc2ccc(NC(C)=O)cc2)cc1,inconclusive: -3.04%,
Cc1cc(N2CCOCC2)n2nc(C)c(-c3ccccc3)c2n1,inconclusive: 5.29%,
CCN(CC)c1ccc(/C=C(\C#N)c2ccccn2)cc1,,"inconclusive: 29.1 µM [falling, partial curve, poor fit]"
COc1ccc(-n2c(SCC(=O)O)nnc2-c2ccc(NC(=O)c3ccccc3)cc2)cc1,inconclusive: 0.516%,

# Arranged by SMILES length (low to high): some entries from above.
SMILES,"activity change, negative = inhibition",Potency
CCCCCCC1CC(CSC(=N)N)OC1=O (stereo not given),,"inconclusive: 13 µM [falling, single point]"
FC(F)(Cl)c1nnc2ccc(Cl)nn12,,"inconclusive: 35.5 µM [cytotoxic, single point]"
CC(N=Cc1cccc(O)c1O)c1ccccc1 (stereo not given),inconclusive: 11.8%,
Fc1ccccc1COc1ccc(C(=S)N2CCCC2)cc1,inactive,
CCN1C(=O)CS/C1=N\S(=O)(=O)c1ccccc1,inconclusive: -6.85%,
CCN(CC)c1ccc(/C=C(\C#N)c2ccccn2)cc1,,"inconclusive: 29.1 µM [falling, partial curve, poor fit]"
COc1ccc(/C=N/Nc2ccc(C(=O)O)cc2)cc1Br,inconclusive: -58.3%,
O=C1CC(=O)C(n2cncn2)C(c2c(F)cccc2Cl)C1 (stereo not given),,"inconclusive: 29.1 µM [falling, single point]"
Cc1nc(SCC(=O)NNC(=O)c2cccs2)[nH]c(=O)c1C,,"inconclusive: 31.6 µM [rising, single point]"
COc1ccccc1-n1cc(CN2CCN(CC(C)C)C(CCO)C2)cn1 (stereo not given),,"inconclusive: 35.5 µM [falling, single point]"
COc1ccc(C(=O)/C=C(\C)Nc2ccc(NC(C)=O)cc2)cc1,inconclusive: -3.04%,
Cc1sc2nc(COC(=O)c3ccc(Cl)c(N)c3)[nH]c(=O)c2c1C,,"inconclusive: 12.6 µM [falling, partial curve]"
O=C(/C=C/c1ccc2c(c1)OCO2)Nc1nc(-c2ccc(F)cc2F)cs1,inactive,
CC(C)CNC(=S)N(Cc1ccco1)Cc1cc2cc3c(cc2[nH]c1=O)OCCO3,inactive,
COc1ccc(-c2[nH]c(-c3ccc(Cl)cc3)nc2SCC(=O)Nc2nccs2)cc1,inactive,
COc1ccc(-n2c(SCC(=O)O)nnc2-c2ccc(NC(=O)c3ccccc3)cc2)cc1,inconclusive: 0.516%,
Cc1ccccc1NC(=O)c1cc(C(=O)c2cc(Cl)ccc2O)cn(-c2ccccc2C)c1=O,inconclusive: 15.4%,
Cc1ccccc1C(=O)Nc1nnc(CC(=O)N/N=C/c2cn(Cc3ccccc3)c3ccccc23)s1,inconclusive: -26.9%,

# (continued)

SMILES,"activity change, negative = inhibition",Potency
CC(C)(C)NC(=O)c1cc(F)c(F)cc1Cl,inconclusive: 7.01%,
O=C(Nc1cc(Br)ccc1O)c1cc(-c2cccs2)on1,,"inconclusive: 8.91 µM [falling, partial curve]"
N=c1ccn(Cc2ccccc2Cl)cc1,inconclusive: 13.1%,
N#C/C(=C\c1ccco1)Sc1nc2ccccc2s1,inactive,
O=C1COc2ccc(C(=O)COC(=O)Cc3ccccc3F)cc2N1,inconclusive: -0.603%,
CC(C)c1cc(O)c(-c2ccccc2)c(=O)n1-c1ccc(Cl)cc1,,"inconclusive: 17.8 µM [rising, partial curve, poor fit]"
Cc1cc(C)cc(NC(=O)CSc2nc(N)c(NC(=O)c3cccs3)c(=O)[nH]2)c1,inconclusive: 2.17%,
CN(C)CCCSc1ccccc1NC(=O)/C=C/c1ccccc1,inconclusive: 272%,
CCc1ccccc1Nc1cc(C(=O)NCc2ccccn2)c2ccccc2n1,inconclusive: 22.4%,
O=c1oc2ccccc2c(N2CCCCC2)c1CN1CCCCC1,,"inconclusive: 3.66 µM [falling, partial curve]"
COCCn1c(N)c(N(Cc2ccccc2)C(=O)COc2ccccc2F)c(=O)[nH]c1=O,inactive,
Cc1ccc(/C=N/NC(=O)CN(Cc2ccccc2)S(=O)(=O)c2ccc3c(c2)OCCO3)cc1,inconclusive: -9.9%,
O=[N+]([O-])c1cc(Oc2cccnc2)cc([N+](=O)[O-])c1,inconclusive: 4.95%,
COc1cc(SC)ccc1C(=O)N1CCN(Cc2ccc3c(c2)OCO3)CC1,,"inconclusive: 25.1 µM [falling, partial curve, poor fit]"
CC1=NNC(=O)/C1=C\c1cn(-c2ccccc2)nc1-c1ccc(Cl)cc1,,"inconclusive: 3.55 µM [falling, partial curve, poor fit]"
O=C(Nn1c(SCc2ccccc2F)nc2ccsc2c1=O)c1ccccc1,inconclusive: 9.63%,
Cc1oc2ccc(OCc3ccccc3F)cc2c1C(=O)O,,"inconclusive: 1.3 µM [rising, full curve]"
CCCn1nnc(NC(=O)c2ccc3ccccc3c2)n1,inconclusive: -28%,
COc1ccc(-c2csc(-c3cccnc3)n2)cc1C,inconclusive: -1.2%,
CSc1ccc(NC(=O)Nc2cccn(Cc3ccccc3F)c2=O)cc1,inconclusive: 14.5%,
COc1ccc(C(=O)O)nc1C,inconclusive: -11%,
CCO[C@H]1OC(C(=O)N2CCOCC2)=C[C@@H](c2cn(C(C)=O)c3ccccc23)[C@@H]1CCCO,,"inconclusive: 8.91 µM [falling, partial curve, poor fit]"
C[C@H]1COC(=O)[C@H](NC(=O)OCC2c3ccccc3-c3ccccc32)C/C=C\C[C@H](CC(=O)N(CCO)Cc2ccccc2)C(=O)N1,inactive,
COC(=O)C1CCN(C(=O)c2oc3c(Cl)cc(C)cc3c2C)CC1,inconclusive: -0.324%,
Cc1ccccc1CS(=O)(=O)c1ccc(C(=O)N2CCOCC2)cc1[N+](=O)[O-],inconclusive: -16.2%,
N/C(=N\OC(=O)Cc1ccccc1[N+](=O)[O-])c1ccncc1,inconclusive: -2.39%,
C1=C(c2ccccc2)CCN(c2nc3ccccc3n3cnnc23)C1,inconclusive: 14.1%,

SMILES,"activity change, negative = inhibition",Potency
CC(Oc1ccc2ccc(=O)oc2c1)C(=O)NC1CCN(Cc2ccccc2)CC1 (stereo not given),inactive,
CCCCN1CC(=O)N2[C@H]3c4cc(Cl)ccc4OC[C@@H]3[C@H](C(=O)OCC)[C@]2(C)C1=O,inconclusive: 1.51%,
Cc1cc(N2CCCCCC2)nc(-c2ccccc2O)n1,inactive,
COc1ccc(-c2onc(C)c2-c2ccccc2)c(O)c1,inconclusive: 11.5%,
COc1ccccc1C(=O)COC(=O)COc1cccc2c1OC(C)(C)C2,inconclusive: 0.146%,
Cc1ccccc1C(=O)NNC(=O)CCc1ccccc1,,"inconclusive: 17.8 µM [falling, single point]"
CC(C)c1ccc(CNc2cc(N3CCCC3)ccc2[N+](=O)[O-])cc1,inactive,
Cc1ccc(-c2csc(NC(=O)c3cccs3)n2)cc1,,"inconclusive: 5.8 µM [rising, partial curve, poor fit]"
COC(=O)c1ccc(OCC(=O)c2ccccc2)cc1,,"inconclusive: 29.1 µM [falling, single point]"
CCc1ccc(OCC(=O)NCC(c2ccc(Cl)cc2)N2CCCCC2)cc1 (stereo not given),inconclusive: -0.214%,
O=C1c2cnc3ncnn3c2CC2c3ccccc3CCN12 (stereo not given),inactive,
Cc1ccc2nc(SCC(=O)Nc3cccc([N+](=O)[O-])c3)[nH]c2c1,inconclusive: 0.338%,
CCOC(=O)C1(CCOC)CCN(Cc2ccc(C3CCCCO3)s2)CC1 (stereo not given),inconclusive: 7.23%,
O=C(N/N=C/c1ccc2ncccc2c1)c1cc(-c2cccs2)nc2ccccc12,inactive,
COc1ccc(-c2csc(N(CC(C)C)C(=O)c3ccco3)n2)cc1,inconclusive: -0.731%,
COc1ccc(C(=O)N2CCCC(c3nc(-c4cccs4)no3)C2)cc1 (stereo not given),inconclusive: -2.62%,
Cc1ccc(/C=C/C(=O)NCCCN2CCN(CCCNC(=O)/C=C/c3ccc(C)cc3)CC2)cc1,inactive,
Cc1ccc(NC(=O)COc2ccc3c(c2)OCO3)c(Cl)c1,,"inconclusive: 25.9 µM [rising, partial curve, poor fit]"
Cc1cc(C)c2c(=O)[nH]c(SCc3ccccc3C)nc2n1,inconclusive: -3.3%,
CC(=O)CC1=NC(C)(C)Cc2ccccc21,,"inconclusive: 35.5 µM [falling, single point]"
Cc1cccc2nc(C(=O)Nc3cccc(C(=O)NC4CC4)c3)cn12,,"inconclusive: 1.84 µM [falling, partial curve, poor fit]"
O=C(CCC(=O)Nc1cccc(Cl)c1)N/N=C/c1cc([N+](=O)[O-])ccc1O,inactive,
Cc1ccc(NC(=O)C(C)Sc2nnc3ccccn23)cc1 (stereo not given),inconclusive: 1.15%,
COc1ccc(CNC(=O)CCCCCn2c(=O)[nH]c3ccccc3c2=O)cc1,inactive,
COc1cc(OC)cc(-c2nnc(SCc3c(F)cccc3Cl)o2)c1,inactive,
COc1ccc(/C=C2\SC(=O)N(CCC(=O)N3CCCCC3)C2=O)cc1OC,inconclusive: -18.2%,
